B1: glmS ribozyme (parent)
chain: AUAAAAGCGCCAGAACUACAGAAAUGUAGUUGACGAGGAGGAGGUUUAUCGAAUUUUCGGCGGAUGCCUCCAAA

± gives the standard error. Many of these values have a large error.

In one data set the parent is B1. As to the kind of experiment: self-cleavage kobs at 640 uM GlcN6P; higher = faster cleavage; RNA array. The note with it: with glucosamine-6-phosphate. A digest of the protocol: (§1)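 Glucosamine-6-phosphate in HEPES/KCl/Mg(OAc)2 buffer, at 40 μM to 10 mM, was flowed over barcoded ribozyme variants transcribed in situ by E. coli RNA polymerase on sequenced MiSeq chips. Tracking was through a hybridised Cy3 probe at 37 °C. kobs, kcat and KM came from exponential decay fits and weighted Michaelis–Menten fits of normalised per-tile medians.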
In the case of A36G A64G U69G, the “self-cleavage kobs at 640 uM GlcN6P” value is 3e-05 ± 2.6e-05 s⁻¹.
Still for that read-out and setting: under G13C U54C stands 3.5e-05 ± 1.8e-05 s⁻¹; under A15U C50G A53U U55A, 2.42e-05 ± 1.8e-05 s⁻¹; under G37C C50U U69G, 5.09e-05 ± 2.6e-05 s⁻¹.
For A52C C67A C71U, the “self-cleavage kobs at 640 uM GlcN6P” value was 5.13e-05 ± 2.8e-05 s⁻¹.
Still for that read-out and setting: under G13U G29U U31C G32A stands 5.15e-05 ± 2.7e-05 s⁻¹; under A33U U55A, 1.35e-05 ± 7e-06 s⁻¹; under C16U C58U U69G, 4.27e-05 ± 2.7e-05 s⁻¹.
The same measure, in the same setting: under A48G U56A U69G stands 3.12e-05 ± 2.6e-05 s⁻¹; under U57A C68U C70U, 6.7e-05 ± 3.5e-05 s⁻¹; under G37U U69A, 2.14e-05 ± 1.7e-05 s⁻¹.
On the same count and under the same terms, under A53U A64U stands 2.48e-05 ± 1.6e-05 s⁻¹; under G13C A14G U46A, 2.92e-05 ± 2.1e-05 s⁻¹.
As to U45G C58A G66U, the “self-cleavage kobs at 640 uM GlcN6P” value is 2.81e-05 ± 2.4e-05 s⁻¹.
Same read-out and setting: for C11G A15U G29A C61A the value was 3.4e-05 ± 2.5e-05 s⁻¹; for A48G C58G G63A C70A, 3.53e-05 ± 2.4e-05 s⁻¹.
On the same count and under the same terms, for C50G C58A G66A the value was 6.61e-05 ± 3.5e-05 s⁻¹; for G40A A42U, 2.32e-05 ± 1.6e-05 s⁻¹; for U49A U55C, 0.00412 ± 0.0039 s⁻¹.
On the same count and under the same terms, for A14U U30C G32A C58U the value was 5.62e-05 ± 3e-05 s⁻¹; for G37C A64G, 3.1e-05 ± 1.6e-05 s⁻¹; for U56A C58G C67U, 3.08e-05 ± 1.7e-05 s⁻¹.
Turning to C16G C50U A53C C68G, the “self-cleavage kobs at 640 uM GlcN6P” value amounted to 0.000352 ± 0.00018 s⁻¹.
The same measure, in the same setting: for U30G U57A the value was 2.88e-05 ± 2.3e-05 s⁻¹; for G41U A52U, 2.41e-05 ± 1.7e-05 s⁻¹; for A14U U55A U69A, 2.84e-05 ± 1.5e-05 s⁻¹.
With U57C C58A C67G, the “self-cleavage kobs at 640 uM GlcN6P” value worked out at 2.62e-05 ± 1.9e-05 s⁻¹.
On the same count and under the same terms, under U46G C58G U69G stands 0.000191 ± 0.00011 s⁻¹.
The same measure, in the same setting: under C50G C70U stands 0.0013 ± 0.00074 s⁻¹; under U31A A52U, 2.58e-05 ± 1.7e-05 s⁻¹; under A15U C58A, 2.1e-05 ± 1.3e-05 s⁻¹.
Still for that read-out and setting: for G32U U57C C70U the value was 3.59e-05 ± 2.5e-05 s⁻¹; for C16U G59A, 1.72e-05 ± 1.3e-05 s⁻¹.
Take C16U C58U: the “self-cleavage kobs at 640 uM GlcN6P” value stood at 3.24e-05 ± 1.9e-05 s⁻¹.
Still for that read-out and setting: for A36U G66U C71G the value was 2.98e-05 ± 2.9e-05 s⁻¹; for G38U C67G, 0.000201 ± 0.00016 s⁻¹; for G29C A36U C50G, 5.79e-05 ± 4.1e-05 s⁻¹.
As for A14C G66C, the “self-cleavage kobs at 640 uM GlcN6P” value was determined as 2.17e-05 ± 1.8e-05 s⁻¹.
On the same count and under the same terms, for G37A U69G the value was 2.53e-05 ± 1.9e-05 s⁻¹.

The variants in a further data set derive from B1. The data set is described as follows: self-cleavage kobs at 160 uM GlcN6P; higher = faster cleavage; RNA array. The note with it: with glucosamine-6-phosphate. Put shortly: as §1
As to A15U C50G A53U U55A, the “self-cleavage kobs at 160 uM GlcN6P” value came to 0.000501 ± 0.00031 s⁻¹.
As to A48G U56A U69G, the “self-cleavage kobs at 160 uM GlcN6P” value amounted to 3.03e-05 ± 1.9e-05 s⁻¹.
With G37U U69A, the “self-cleavage kobs at 160 uM GlcN6P” value came out at 2.41e-05 ± 2.2e-05 s⁻¹.

Another data set covers variants of B1. The data set is described as follows: self-cleavage kobs at 2500 uM GlcN6P; higher = faster cleavage; RNA array. The note with it: with glucosamine-6-phosphate. Put shortly:
as §1
In the case of G37U U69A, the “self-cleavage kobs at 2500 uM GlcN6P” value was found to be 3.08e-05 ± 2.7e-05 s⁻¹.
The same measure, in the same setting: under U45G C58A G66U stands 2.37e-05 ± 2.2e-05 s⁻¹.
On to U46G C58G U69G, for which the “self-cleavage kobs at 2500 uM GlcN6P” value was found to be 3.89e-05 ± 2.9e-05 s⁻¹.
As to G37A U69G, the “self-cleavage kobs at 2500 uM GlcN6P” value stood at 2.09e-05 ± 1.3e-05 s⁻¹.

The variants in the next data set derive from B1. As to the kind of experiment: self-cleavage kobs at 10000 uM GlcN6P; higher = faster cleavage; RNA array. The note with it: with glucosamine-6-phosphate. A digest of the protocol:
as §1
For G38U C67G, the “self-cleavage kobs at 10000 uM GlcN6P” value was determined as 1.54e-05 ± 9.3e-06 s⁻¹.
Take G29C A36U C50G: the “self-cleavage kobs at 10000 uM GlcN6P” value came out at 3.41e-05 ± 2.3e-05 s⁻¹.

For the origin of these results see the supplement of paper PMC7125110.
